PubChem BioAssay AID1224830, NIAID | 2016

- Screen: 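Regulators of TLR4 signalling towards TNF-alpha in macrophage-like cells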 (primary screen)
- Cells: human THP-1 monocytic leukaemia cells, TNF dual-luciferase reporter clone, PMA-differentiated to macrophage-like cells
- Reagent: siRNA pool against human genes, 50 nM
- Timing: LPS for 4 h, given about 3 days after siRNA transfection
- Conditions: bacterial LPS (TLR4 ligand), 10 ng/ml
- Measurement: 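TNF firefly reporter luminescence divided by renilla, normalised to the plate median, then turned into a robust z-score for each replicate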
- Direction: TNF reporter robust z-score: higher = stronger TNF reporter response to LPS
- Hit rule: 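a well is active when its z-score exceeds 2.8 or falls below -1.5; control wells carry no call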
The deposit covers about 18,000 reagents; shown is an unselected part. About 2,900 of all reagents (16%) were called active. 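Calls are made per well; low scores hint the gene aids the LPS response, high scores that it dampens it.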 Unmarked entries are inactive. Repeated entries: four replicate wells of each siRNA pool.

Gene | TNF reporter robust z-score
NXPH4 (GeneID 11247) | -0.94
NXPH4 (GeneID 11247) | -0.5
NXPH4 (GeneID 11247) | -0.48
NXPH4 (GeneID 11247) | 0.86
STARD4 (GeneID 134429) | -1.46
STARD4 (GeneID 134429) | -0.35
STARD4 (GeneID 134429) | -0.43
FAM193A (GeneID 8603) | -0.98
FAM193A (GeneID 8603) | -0.75
FAM193A (GeneID 8603) | -0.96
FAM193A (GeneID 8603) | -0.24
TMEM150A (GeneID 129303) | 1.1
TMEM150A (GeneID 129303) | 1.45
TMEM150A (GeneID 129303) | 0.66
TMEM150A (GeneID 129303) | -0.45
LRP1 (GeneID 4035) | -1.18
LRP1 (GeneID 4035) | -1.48
LRP1 (GeneID 4035) | -0.7
LRP1 (GeneID 4035) | -1.29

Next part, starting with the last 4 of the part before.
Gene | TNF reporter robust z-score
LRP1 (GeneID 4035) | -1.18
LRP1 (GeneID 4035) | -1.48
LRP1 (GeneID 4035) | -0.7
LRP1 (GeneID 4035) | -1.29
SLC44A5 (GeneID 204962) | -0.87
SLC44A5 (GeneID 204962) | 2.52
SLC44A5 (GeneID 204962) | 2.11
SLC44A5 (GeneID 204962) | -0.14
INS-IGF2 (GeneID 723961) | 0.76
INS-IGF2 (GeneID 723961) | 0.89
INS-IGF2 (GeneID 723961) | 0.9
INS-IGF2 (GeneID 723961) | 0.46
PTOV1 (GeneID 53635) | -1.47
PTOV1 (GeneID 53635) | -0.86
PTOV1 (GeneID 53635) | -0.96
PTOV1 (GeneID 53635) | -0.81
DEFB108B (GeneID 245911) | 0.91
DEFB108B (GeneID 245911) | -0.54
DEFB108B (GeneID 245911) | -0.24
DEFB108B (GeneID 245911) | -0.02
FGF6 (GeneID 2251) | -0.96
FGF6 (GeneID 2251) | -0.27
FGF6 (GeneID 2251) | -0.98
FGF6 (GeneID 2251) | -0.46
SPRY3 (GeneID 10251) | -0.34
SPRY3 (GeneID 10251) | 1.41
SPRY3 (GeneID 10251) | 0.28
SPRY3 (GeneID 10251) | 0.19
ARL8B (GeneID 55207) | 2.29
ARL8B (GeneID 55207) | 2.74
ARL8B (GeneID 55207) | 3.76 (active)
ARL8B (GeneID 55207) | 4.62 (active)
